# Some results were stated once for a whole list of compounds, not compound by compound.
# B1: sht-GroEL (191-376): histidine-tagged (short histidine tail; sht) minichaperone GroEL(191-376) (protein, UniProt P0A6F5 191-376, looked up, fragment)
# chain: EGMQFDRGYLSPYFINKPETGAVELESPFILLADKKISNIREMLPVLEAVAKAGKPLLIIAEDVEGEALATLVVNTMRGIVKVAAVKAPGFGDRRKAMLQDIATLTGGTVISEEIGMELEKATLEDLGQAKRVVINKDTTTIIDGVGEEAAIQGRVAQIRQQIEEATSDYDREKLQERVAKLAGGV
# modifications: short histidine tail
# Test system: AI90 (ΔgroEL::kan^R) [pBADEL] E. coli strain
# Assay: Plating ability of transformed AI90 (ΔgroEL::kan^R) [pBAD-EL] at 37° C. on depletion of GroEL
# Format: cell-based
# Conditions: 0.01% arabinose
# Protocol: AI90 (ΔgroEL::kan^R) [pBAD-EL] cells were transformed with the pJC vector series. Transformants were selected at 37° C. on LB supplemented with 50 μg.ml^−1 of kanamycin, 120 μg.mL^−1 of ampicillin, 25 μg.mL^1 of chloramphenicol and 0.2% L(+)arabinose. Depletion of GroEL protein was analysed at 37° C. by plating the same quantity of AI90 [pBAD-EL+pJC vectors] cells on LB plates containing 1% D(+)glucose or various amount of arabinose.
# Each experiment was performed in triplicate. Plasmids carrying no groE genes or encoding the GroE proteins were used as negative or positive controls, respectively.
molecule,measurement,value
B1,colony forming ability relative to the number produced in the presence of 0.2% arabinose,< 5%
